Reference: PMC13424379 (Fundamental Research, 2024)

Test system: Tg (mpx: EGFP) zebrafish
Assay: Zebrafish immunocompromised model
Type: in vivo
Conditions: 25 µM·L^−1, with 100 µg·mL^−1 vinorelbine, compared to the model group

For `C=C1CCC[C@]2(C)C=C3OC(=O)C(C)=C3C[C@@H]12` [atractylenolide I], the “immune enhancement (number of neutrophils)” value was “immune-enhancing effect”.
